Some results were stated once for a whole list of compounds, not compound by compound.
Biological target: T1, MMP14 in the MDA-MB-231-derived extracellular vesicles (Homo sapiens, UniProt P50281)
T1 construct: in terms of intact MMP14 with a molecular weight of 70 kDa
Assay: Digital detection through MMP14 activity of MDA-MB-231-derived extracellular vesicles captured on anti-CD9/CD63/CD81 antibody-immobilized particles
Assay type: biochemical
Details: Example 52, Custom #2 5 μM and Custom #2T 2.5 μM in the same system, MS300C, any blocking treatment, 23° C., 24 hours
Experimental: The concentration of the solution is 10 μg/mL.
For detection of MMP14 activity, 1 mM Custom #2 was diluted with the buffer (4) to prepare a MMP14 detection solution containing 10 μM Custom #2.
The number of the particles was increased 4-fold, and a reaction was allowed to proceed. However, the number and concentration of the particles used to fill the wells are finally the same as those in other Examples.
The concentration of the solution is 10 μg/mL. The solution was subjected to 3-fold serial dilution to prepare standard samples with seven concentrations.
For detection of MMP14 activity, 1 mM Custom #2 and a 100 µM resorufin β-D-galactopyranoside solution were diluted with the buffer (4) to prepare a MMP14 and CD9/CD63/CD81 cocktail detection solution (1) containing 10 μM Custom #2 and 5 μM resorufin β-D-galactopyranoside. In addition, the solution was diluted 2-fold with the buffer (4) to prepare a detection solution (2). Nonfluorescent resorufin β-D-galactopyranoside is degraded by β-galactosidase to produce fluorescent resorufin. In this case, the maximum wavelengths of excitation and fluorescence of resorufin are 570 nm and 585 nm, respectively. […]

Substance | double-positive ratio [%]
TAMRA-GGPLGLAGGK(TQ3) (TAMRA, TQ3 quencher) [Custom #2T] | ≥ 90
[5-FAM]GGPLGLAGGK(TQ2)[OH] (5-FAM, TQ2 quencher, free acid) [Custom #2] | ≥ 90

— patent publication US20250290928A1, “METHOD, KIT AND DEVICE FOR DETECTING EXTRACELLULAR VESICLES” (priority 2022, published 2025)
